Experimental data published in paper PMC6113209.
For at least one entry, the source does not settle the construct or the ends of the probe. Results from cells or extracts need not show a direct contact. At least one verdict rests on a figure or table, not on a statement of the authors. Tags and fusion partners may be left off the protein sequences shown.

Biological target: T1, SOX9 (UniProt P48436)
T1 sequence (looked up, limits assumed): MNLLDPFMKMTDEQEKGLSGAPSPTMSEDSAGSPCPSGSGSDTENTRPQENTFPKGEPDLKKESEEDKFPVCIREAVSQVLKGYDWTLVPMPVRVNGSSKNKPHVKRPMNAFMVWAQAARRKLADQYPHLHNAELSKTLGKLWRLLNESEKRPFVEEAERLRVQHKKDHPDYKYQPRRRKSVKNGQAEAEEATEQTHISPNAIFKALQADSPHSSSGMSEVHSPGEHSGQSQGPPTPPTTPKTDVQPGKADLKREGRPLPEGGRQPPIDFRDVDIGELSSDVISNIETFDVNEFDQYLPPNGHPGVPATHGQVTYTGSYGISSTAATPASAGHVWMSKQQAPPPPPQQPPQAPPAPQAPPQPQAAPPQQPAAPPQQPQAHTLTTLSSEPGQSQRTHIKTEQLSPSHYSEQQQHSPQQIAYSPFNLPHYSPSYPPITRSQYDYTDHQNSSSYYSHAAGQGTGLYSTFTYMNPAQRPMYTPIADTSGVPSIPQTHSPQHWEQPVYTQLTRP
Assay: EMSA
Conditions: Beyotime LightShift chemiluminescent EMSA kit, manufacturer's instructions; pH and temperature not stated; protein in an extract

AACTACCAAAATTGACAACAATAGTGTTTACTTCCACCTT (double strand) [COL10A1 promoter SOX9 probe]
binding result: binds
